Measured values published in paper PMC10683014, “Amino Acids as Chelating Ligands for Platinum: Enhanced Stability in an Aqueous Environment Promoted by Biocompatible Molecules” (Journal of Medicinal Chemistry, 2023).

How the values were obtained:
[1] = test system: MDA-MB-231 breast cancer cell line; experiment: MTT metabolic activity (cytotoxicity) assay, MDA-MB-231; assay type: cell-based; settings: 25 µM; Sidak's multiple comparisons test
Description: (§1) In order to determine the antitumor activity of the platinum complexes, in vitro cytotoxicity tests were performed. Compounds 1–4 were tested with cisplatin as a reference on the breast cancer cell line MCF-7 and the colon carcinoma cell line HT-29. Complexes 1, 4, and 5, as well as the ligand (but-3-en-1-yl 2-acetoxybenzoate, 6) were additionally evaluated on MDA-MB-231 cells and A2780cis cells, also using cisplatin as a reference. The metabolic activity as an indicator of cytotoxicity was determined by a classical 3-(4,5-dimethylthiazol-2-yl)-2,5-diphenyltetrazoliumbromid (MTT) assay.
(§2) The cell lines A2780cis and MDA-MB-231 were cultivated in RPMI 1640 without phenol red (PAN Biotech, Aidenbach, Germany), supplemented with L-glutamine (2 mM), 100 μg/mL penicillin, 100 μg/mL streptomycin, and FCS (10%) (all from Invitrogen Corporation, Gibco, Paisley, Scotland) at 37 °C in a 5% CO2/95% air atmosphere, and passaged twice per week. To maintain resistance, A2780cis cells were incubated every second week with cisplatin (1 μM). The cell lines MCF-7 and HT-29 were grown in DMEM without phenol red (PAN Biotech, Aidenbach, Germany), containing L-glutamine, 100 μg/mL penicillin, 100 μg/mL streptomycin, sodium pyruvate ([…]) (PAN Biotech), and FCS (10%) under the same conditions as the other cell lines.
The exponentially growing cell lines were seeded at a density of 2000 cells/well for MCF-7 cells, 4000 cells/well for HT-29 cells and MDA-MB-231 cells, and 8000 cells/well for A2780cis cells, respectively, into clear flat-bottom 96-well plates in triplicates. Following 24 h of incubation for adherence at 37 °C in a humidified atmosphere (5% CO2/95% air), the compounds were added to reach the desired concentrations between 10 and 100 μM, respectively. All stock solutions were prepared in dimethylformamide at a concentration of 100 mM and were then diluted with the respective cell-culture medium to the appropriate concentrations. After another 72 h of incubation, the cellular metabolic activity was measured by employing a MTT assay. Hereby, the yellow tetrazolium salt is converted to a purple formazan salt by the functioning mitochondria. These purple crystals are then dissolved in DMSO and can be quantified via absorption measurements at 570 and 420 nm. The optical density of the particular medium was subtracted in order to exclude the unspecific staining caused by the FCS-containing medium. The values were calculated with Excel 2019 (Microsoft, Redmond, WA, USA) using nonlinear regression and the decal logarithm of the inhibitor versus variable slope equation, while the top constraint was set to 100%.

[2] = test system: A2780cis ovarian carcinoma cell line (cisplatin-resistant); experiment: MTT metabolic activity (cytotoxicity) assay, A2780cis; assay type: cell-based; settings: 25 µM; Sidak's multiple comparisons test
Description: as §1, §2
The exponentially growing cell lines were seeded at a density of 2000 cells/well for MCF-7 cells, 4000 cells/well for HT-29 cells and MDA-MB-231 cells, and 8000 cells/well for A2780cis cells, respectively, into clear flat-bottom 96-well plates in triplicates. […] After another 72 h of incubation, the cellular metabolic activity was measured by employing a MTT assay. […] These purple crystals are then dissolved in DMSO and can be quantified via absorption measurements at 570 and 420 nm. […] The values were calculated with Excel 2019 (Microsoft, Redmond, WA, USA) using nonlinear regression and the decal logarithm of the inhibitor versus variable slope equation, while the top constraint was set to 100%.

Compound	Mean Diff of residual metabolic activity, cisplatin vs. compound, MDA-MB-231 [1]	Mean Diff of residual metabolic activity, cisplatin vs. compound, A2780cis [2]
C=C.C[C@H](N)C(=O)[O][Pt][Cl] [1a, (Ethylene,N-trans)(L-alaninato-N,O)chlorido(η^2-ethene)platinate(II)]	-100,5%	-102,1%
C=CCCOC(=O)c1ccccc1OC(C)=O.[Cl][Pt-]([Cl])[Cl].[K+] [compound 5, potassium {trichlorido[η^2-(but-3-en-1-yl)-2-acetoxybenzoate]platinate(II)}]	-90,69%	-107,5%
C=CCCOC(=O)c1ccccc1OC(C)=O [compound 6, but-3-en-1-yl 2-acetoxybenzoate]	-91,45%	-103,5%
(Ethylene,N-trans)(L-alaninato-N,O)chlorido(η^2-(but-3-en-1-yl)-2-acetoxybenzoate)platinate(II) [compound 4]	0,996%	
